Assay results published in PubChem BioAssay AID1347076 (National Center for Advancing Translational Sciences (NCATS), 2019).
Screen size: about 400,000 compounds; about 13,000 (3.2%) were called active. Inconclusive means that the source gave no clear call. Such entries were picked first, then a sample of the others. Calls follow the shape of the dose curve; as a rule, active = well fitted cell-killing curve with a large enough effect; inconclusive = small, poorly fitted or top-dose-only effect, or effect the other way; inactive = flat fitted curve, though single readings scatter. Where the call is inconclusive, the potency comes from a doubtful curve fit.

Test: qHTS assay for MDR1-selective chemotherapeutics: Primary screen using the drug-selected MDR subline cells KB-V1; also: nearly all actives have a fitted effect of over 60% in size
Details: KB-V1 MDR cells viability, CellTiter-Glo, 72 h; activity change, negative = cytotoxicity: at 46.1 µM (top of the series)
Method in brief: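 Cytotoxicity via CellTiter-Glo luminescence after 72 h compound exposure at 37 degrees C. Cells: drug-selected KB-V1 line, DMEM phenol-red free plus 10% FBS. Compounds tested at multiple concentrations; normalized data fitted to concentration-effect curves.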
% is scaled to controls: 0 for no effect and ±100 for the full control effect; potency is read from the fitted curve at half-maximal effect.

SMILES	Potency	activity change, negative = cytotoxicity
Cc1cccc(CN(C)C[C@@H]2OCc3cnnn3CCCC(=O)N([C@H](C)CO)C[C@H]2C)c1	inactive	
Cc1ccc(CSCCNC(=O)CSCc2ccc([N+](=O)[O-])cc2)cc1	inactive	
CCC(=O)Nc1cc(-c2nc3cc(C)cc(C)c3o2)ccc1C	inactive	
CCOc1cc(C(=S)N2CCCCC2)ccc1OS(=O)(=O)c1ccc(Br)cc1	active: 4.11 µM	
CC1=CCC[C@@H]2[C@@](C)(CC/C(C)=C/C(=O)O)[C@H](C)CC[C@@]12C	inconclusive: 20.6 µM [rising, single point]	
O=C(Nc1cccc2cccnc12)c1cccc2c(Br)cccc12	inconclusive: 29.1 µM [rising, single point]	
CC(C)(C)OC(=O)N1CCN(c2ccc(CNC(=O)c3ccc(Cl)cc3)cc2)CC1	inconclusive: 2 µM [cytotoxic, partial curve, poor fit]	
CCC/C(=N/NC(=O)c1ccc2c(c1)OCO2)c1cccs1	inconclusive: 25.9 µM [cytotoxic, single point]	
Cc1cc(C)cc(NC(c2cccc(Cl)c2)c2nnc(-c3ccccc3)o2)c1 (configuration not stated)	inactive	
CCCN(CCC)C(=O)CCSCCC(=O)N(CCC)CCC	active: 18.4 µM	
O=C(COC(=O)/C=C/c1ccccc1Cl)NCCNC(=O)COC(=O)/C=C/c1ccccc1Cl	inactive	
Cc1c(NC(=O)CCCCCN2C(=O)c3ccccc3C2=O)c(=O)n(-c2ccccc2)n1C	inconclusive: 7.31 µM [rising, partial curve]	
Cc1ccc(N(CC(O)CN2CCCCC2)S(=O)(=O)c2ccc(C)cc2)cc1 (configuration not stated)	inconclusive: 18.4 µM [cytotoxic, partial curve, poor fit]	
Cc1ccc(-c2cc(C(=O)N3CCCC3)c3ccccc3n2)s1	inconclusive: 8.2 µM [cytotoxic, partial curve]	
CC(CN1CCCCC1)NC(=O)c1cc(-c2ccccn2)nc2ccc(Cl)cc12 (configuration not stated)	inconclusive: 29.1 µM [cytotoxic, single point]	
COc1ccc(-n2c(Cc3ccccc3)nnc2SCc2nc(-c3ccccc3C)no2)cc1	inconclusive: 29.1 µM [cytotoxic, single point]	
O=C(CN1CCN(S(=O)(=O)c2ccc3ccccc3c2)CC1)Nc1ccc2c(c1)CCC2	active: 18.4 µM	
CN1CC=C2C(C#N)=C(N)C(C#N)(C#N)[C@H](c3cccs3)[C@H]2C1	inactive	
C=CCNC(=O)c1onc(CSc2cc(C)cc(C)c2)c1C(=O)NCC=C	inactive	
COc1ccc(CCn2c(C)cc(C(=O)CSc3nnnn3-c3ccccc3)c2C)cc1OC	inconclusive: 2.06 µM [cytotoxic, full curve]	
COc1ccc(C)cc1-n1nnnc1SCC(=O)Nc1cc(C)on1	inactive	
C=CCNC(=S)N1CCC(C(=O)c2ccc(OC)cc2)CC1	inconclusive: 8.2 µM [cytotoxic, partial curve]	
Cc1cc(C)c(O)c(CN(C)Cc2cc(Cl)cc(Cl)c2O)c1	inconclusive: 23.1 µM [cytotoxic, partial curve, poor fit]	
O=C1c2[nH]nc(-c3ccccc3O)c2C(c2cccc(Br)c2)N1Cc1ccncc1 (configuration not stated)	inconclusive: 14.6 µM [cytotoxic, single point]	

In the list so far, 13 have sulfur.
SMILES	Potency	activity change, negative = cytotoxicity
Cc1ccc(CSCCNC(=O)CSCc2ccc([N+](=O)[O-])cc2)cc1	inactive	
CCOc1cc(C(=S)N2CCCCC2)ccc1OS(=O)(=O)c1ccc(Br)cc1	active: 4.11 µM	
CCC/C(=N/NC(=O)c1ccc2c(c1)OCO2)c1cccs1	inconclusive: 25.9 µM [cytotoxic, single point]	
CCCN(CCC)C(=O)CCSCCC(=O)N(CCC)CCC	active: 18.4 µM	
Cc1ccc(N(CC(O)CN2CCCCC2)S(=O)(=O)c2ccc(C)cc2)cc1 (configuration not stated)	inconclusive: 18.4 µM [cytotoxic, partial curve, poor fit]	
Cc1ccc(-c2cc(C(=O)N3CCCC3)c3ccccc3n2)s1	inconclusive: 8.2 µM [cytotoxic, partial curve]	
COc1ccc(-n2c(Cc3ccccc3)nnc2SCc2nc(-c3ccccc3C)no2)cc1	inconclusive: 29.1 µM [cytotoxic, single point]	
O=C(CN1CCN(S(=O)(=O)c2ccc3ccccc3c2)CC1)Nc1ccc2c(c1)CCC2	active: 18.4 µM	
CN1CC=C2C(C#N)=C(N)C(C#N)(C#N)[C@H](c3cccs3)[C@H]2C1	inactive	
C=CCNC(=O)c1onc(CSc2cc(C)cc(C)c2)c1C(=O)NCC=C	inactive	
COc1ccc(CCn2c(C)cc(C(=O)CSc3nnnn3-c3ccccc3)c2C)cc1OC	inconclusive: 2.06 µM [cytotoxic, full curve]	
COc1ccc(C)cc1-n1nnnc1SCC(=O)Nc1cc(C)on1	inactive	
C=CCNC(=S)N1CCC(C(=O)c2ccc(OC)cc2)CC1	inconclusive: 8.2 µM [cytotoxic, partial curve]	

Continued:

SMILES	Potency	activity change, negative = cytotoxicity
O=C(O)CNC(=O)CCN1C(=O)c2ccccc2C1=O	inactive	
Cc1ccc(C2(C)NC(=O)N(CC(=O)N3CCN(C(=O)c4cccs4)CC3)C2=O)cc1 (configuration not stated)	inactive	
COc1cccc(NC(=O)CSc2cc(C)[nH]c(=O)n2)c1	inactive	
CC(=O)c1ccc(OCCCC(=O)Nc2ccc(C)c(S(=O)(=O)N3CCCCC3)c2)cc1	inconclusive: 29.1 µM [cytotoxic, single point]	
O=C(O)C[C@H]1c2ccccc2S(=O)(=O)N1c1ccccc1	inconclusive: 18.4 µM [rising, single point]	
COCCCNC(=O)c1sc2nc(C)c(C(=O)Nc3ccc(Cl)cc3)c(-c3ccc(Br)cc3)c2c1N	inconclusive: 29.1 µM [rising, single point]	
Cc1ccc(S(=O)(=O)NC2CC(C)(C)N(O)C(C)(C)C2)cc1	inconclusive: 20.6 µM [cytotoxic, single point]	
Cc1onc(-c2c(F)cccc2Cl)c1C(=O)OCC(=O)Nc1cccc(S(=O)(=O)N(C)C)c1	active: 4.11 µM	
CCCNC(C)(C)COC(=O)c1ccccc1	inactive	
C=CCn1c(SCc2nc(N)nc(N3CCCCC3)n2)nnc1-c1ccco1	inconclusive: 8.2 µM [cytotoxic, partial curve]	
CC1=C(C(=O)N2CCCC(N3CCN(c4ccccc4F)CC3)C2)OCCO1 (configuration not stated)	inconclusive: 9.2 µM [cytotoxic, partial curve]	
Cc1ccc(CN2CCN(Cc3cn(C(C)C)c4ccccc34)CC2CCO)o1 (configuration not stated)	inconclusive: 14.6 µM [rising, single point]	
CC1(C)CC(NC(=O)c2cc(COc3cccc(C(F)(F)F)c3)on2)CCO1 (configuration not stated)	inactive	
CCc1nnc(NC(=O)c2ccc3ncsc3c2)s1	inactive	
O=C(CSc1nc2c([nH]c3ccccc32)c(=O)n1-c1ccccc1)NCC1CCCO1 (configuration not stated)		inconclusive: -5%
CCCN(CCC)c1nc(NC2CCN(C(=O)OCC)CC2)nc(OC)n1	active: 16.4 µM	
CCS(=O)(=O)N1CC(=O)N(c2cccc(C)c2C)C(C)(C(=O)NC2CCCCCC2)C1 (configuration not stated)	inactive	
CCC(C)c1ccc(NC(=S)NCCn2cc(Br)cn2)cc1 (configuration not stated)	inactive	
CCCC1Cc2nc(N3CCCCC3)c(C#N)cc2CO1 (configuration not stated)	inconclusive: 14.6 µM [cytotoxic, partial curve]	
O=C(c1ccccc1C(=O)N1CCN(c2ccccc2F)CC1)N1CCN(c2ccccc2F)CC1	inconclusive: 4.11 µM [cytotoxic, partial curve, poor fit]	
CCCCC(=O)NC(=S)NNC(=O)CCc1ccccc1	inconclusive: 14.6 µM [cytotoxic, partial curve]	
Cc1onc(-c2ccccc2)c1C(=O)NNC(=S)NC(=O)c1ccc(Br)cc1	inconclusive: 9.2 µM [cytotoxic, partial curve]	
Cc1cc2nnc(SCC(=O)N3CCCCCC3)n2c(N)n1	inconclusive: 29.1 µM [rising, single point]	
CCOc1cc(C)c(Cl)cc1S(=O)(=O)NCc1ccc2c(c1)OCO2	active: 13 µM	

SMILES	Potency	activity change, negative = cytotoxicity
CCc1cccc(N=c2c([N+](=O)[O-])nn(-c3ccc4c(c3)OCCO4)n2O)c1	inconclusive: 20.6 µM [cytotoxic, single point]	
COc1ccccc1/C=C(/CC(=O)NCc1ccccc1)c1nc2ccccc2s1	inconclusive: 8.2 µM [cytotoxic, partial curve]	
NC(=O)Nc1ccc(C(=O)OCC(=O)N2CCCC2=O)cc1	inactive	
CCCC(C(=O)NCc1ccco1)N(C(=O)CNS(=O)(=O)c1ccccc1)c1ccccc1OC (configuration not stated)	inconclusive: 16.4 µM [cytotoxic, single point]	
O=C(NNC(=O)c1cc(Br)ccc1Cl)c1csc(N2CCOCC2)n1	inconclusive: 29.1 µM [cytotoxic, single point]	
O=C(COC(=O)C1CCN(c2ccc(C(F)(F)F)cn2)CC1)NCc1cccc(Cl)c1	inactive	
COc1ccccc1CCN=C(N)NS(=O)(=O)c1ccc(C)cc1	inactive	
O=C1N/C(=N/N=C/c2ccccc2O)SC1Cc1ccc(F)cc1 (configuration not stated)	inconclusive: 16.4 µM [cytotoxic, single point]	
COCCn1c(=S)[nH]c2cc(C(=O)N3CCc4ccccc4C3)ccc2c1=O	inconclusive: 29.1 µM [cytotoxic, single point]	
COC(=O)C1=NN(C(=O)c2cccc(Br)c2)C(O)(c2ccc(Cl)cc2)C1 (configuration not stated)	inactive	
O=C(Nc1ccccc1N1CCOCC1)c1ccc([N+](=O)[O-])s1	inconclusive: 20.6 µM [cytotoxic, single point]	
CSC1=NCCN1C(=O)c1c(-c2ccccc2Cl)noc1C		inconclusive: 51%
CC12CCC(O)CC1=CCC1C2CCC2(C)C3=NN=CC3CC12 (configuration not stated)	inconclusive: 29.1 µM [cytotoxic, single point]	
CCOC(=O)[C@]12CCCC=C1N(Cc1ccccc1)C(=O)[C@H](CC(=O)NCCc1ccccc1OC)C2	inconclusive: 7.31 µM [cytotoxic, partial curve]	
CCOC(=O)CCn1nc(-c2ccc(Cl)cc2)cc1N	inconclusive: 2.91 µM [cytotoxic, partial curve, poor fit]	
Cc1cc(O)c(C(=O)c2cnc3c(c2)COc2ccccc2-3)cc1Cl	inactive	
COc1ccc(CCNC(=O)Cc2ccc(C)cc2)cc1OC	inactive	
O=C(Cc1ccccc1)N/N=C/c1cccnc1	inconclusive: 25.9 µM [rising, partial curve, poor fit]	
CCn1c(=O)c([N+](=O)[O-])c(NCCc2ccccc2)c2ccccc21	inconclusive: 18.4 µM [cytotoxic, single point]	
Cc1cccc(NC(=O)Nc2c(C)n(C)n(-c3ccccc3)c2=O)c1C	inactive	
O=C(c1ccc(C#CC2(O)CCCCC2)cc1)N1CCN(C(c2ccccc2)c2ccccc2)CC1	inconclusive: 18.4 µM [cytotoxic, single point]	
CCc1ccn2cc(-c3ccc4c(c3)OCO4)nc2c1	inconclusive: 23.1 µM [cytotoxic, single point]	
Nn1c(Cc2cccc3ccccc23)nnc1SCc1ccccc1	active: 16.4 µM	
CCOC(=O)c1ccccc1NC(=O)Cc1ccccc1OC	inconclusive: 14.6 µM [cytotoxic, partial curve, poor fit]	

Rewritten as comma-separated lines: entries from further up.
SMILES,Potency,"activity change, negative = cytotoxicity"
CC12CCC(O)CC1=CCC1C2CCC2(C)C3=NN=CC3CC12 (configuration not stated),"inconclusive: 29.1 µM [cytotoxic, single point]",
CCOC(=O)[C@]12CCCC=C1N(Cc1ccccc1)C(=O)[C@H](CC(=O)NCCc1ccccc1OC)C2,"inconclusive: 7.31 µM [cytotoxic, partial curve]",
